# Measurements taken from PubChem BioAssay AID720504 (National Center for Advancing Translational Sciences (NCATS), 2013).
# The chains behind the UniProt entries cited, without tags or fusion partners.
# UniProt P53350, whole entry, looked up: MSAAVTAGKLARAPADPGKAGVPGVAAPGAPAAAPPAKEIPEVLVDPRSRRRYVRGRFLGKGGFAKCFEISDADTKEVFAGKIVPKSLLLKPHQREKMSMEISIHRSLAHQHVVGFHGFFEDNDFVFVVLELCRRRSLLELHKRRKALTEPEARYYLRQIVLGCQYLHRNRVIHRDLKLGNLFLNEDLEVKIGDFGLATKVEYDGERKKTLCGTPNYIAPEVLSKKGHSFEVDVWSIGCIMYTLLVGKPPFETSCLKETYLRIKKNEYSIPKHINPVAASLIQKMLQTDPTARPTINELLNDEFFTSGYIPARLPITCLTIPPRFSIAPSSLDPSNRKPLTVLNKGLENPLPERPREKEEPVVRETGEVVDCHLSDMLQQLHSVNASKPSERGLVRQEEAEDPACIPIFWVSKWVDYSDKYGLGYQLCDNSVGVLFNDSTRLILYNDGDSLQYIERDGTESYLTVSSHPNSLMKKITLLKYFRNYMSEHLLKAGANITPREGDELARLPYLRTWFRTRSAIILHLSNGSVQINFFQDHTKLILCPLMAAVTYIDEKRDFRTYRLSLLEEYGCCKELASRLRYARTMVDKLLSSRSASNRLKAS
# In all, about 360,000 compounds went through this assay and about 10,000 (2.8%) were called active. Inconclusive results, whose numbers are uncertain, are shown with a selection of clear calls. Calls follow the shape of the dose curve; as a rule, active = well fitted inhibition curve with a large enough effect; inconclusive = small, poorly fitted or top-dose-only effect; inactive = flat fitted curve, though single readings scatter. Where the call is inconclusive, the potency comes from a doubtful curve fit.
# Target: Serine/threonine-protein kinase PLK1 (Homo sapiens) (UniProt P53350)
# Assay: qHTS for Inhibitors of PLK1-PDB (polo-like kinase 1 - polo-box domain): Primary Screen; also: nearly all actives have a fitted effect of over 65% in size; as to max response, negative = inhibition: series mostly up to about 57 µM
# Settings: Plk1 PBD binding of FITC phosphopeptide, fluorescence polarization
# % is scaled to controls: 0 for no effect and ±100 for the full control effect; potency is read from the fitted curve at half-maximal effect.
Structure (SMILES),Potency,"max response, negative = inhibition"
Cc1cccc(N2C(=O)NC(=O)/C(=C\c3cnc(-c4ccccc4)nc3)C2=O)c1,active: 5.97 µM,–
COc1cc(/C=C2\C(=O)NC(=O)N(c3ccccc3)C2=O)cc(OC)c1O,"inconclusive: 2.99 µM [inhibitor, full curve]",–
CCOc1cc(/C=C2/C(=O)NC(=O)N(c3ccc(CC)cc3)C2=O)ccc1OC(=O)c1cccs1,active: 5.97 µM,–
COC(=O)C1=C(c2ccc(C(C)=O)cc2)C[C@@H]2CC[C@H]1N2C(=O)NC1CC1,–,inactive: 1.26%
Cc1ccccc1N1C(=O)NC(=O)/C(=C\c2ccc3c(c2)CCCN3Cc2ccccc2)C1=O,–,inconclusive: -13.5% [inhibitor]
Cc1cccc(C)c1OCc1n[nH]c(=S)n1N,"inconclusive: 23.8 µM [inhibitor, partial curve]",–
O=c1oc(Cl)c(Cl)c2ccccc12,active: 0.336 µM,–
Oc1cc(Cl)c(Cl)c(Cl)c1,–,inactive: -2.81%
CC(C)c1ccc(-n2c(O)c(/C=N/NC(=O)c3ccccc3O)c(=O)[nH]c2=S)cc1,"inconclusive: 21.2 µM [inhibitor, partial curve]",–
COC(=O)N(c1ccccc1)P1(=S)OCCO1,active: 11.9 µM,–
O=[N+]([O-])c1nccn1CC(O)CN1CC1 (stereo not given),–,inactive: -4.3%
Cc1cc(N2C(=O)CC(N3CCC(n4c(=O)[nH]c5ccccc54)CC3)C2=O)no1 (stereo not given),active: 26.7 µM,–
CCOP(=O)(/C(C#N)=C(\C)O)c1ccccc1 (stereo not given),active: 21.2 µM,–
CC1(C)CC(n2[nH]c(=O)c3c2NC(=O)CSC3c2ccccc2)CCO1 (stereo not given),"inconclusive: 29.9 µM [inhibitor, partial curve]",–
CC(C)(C)N1C(=O)NC(=O)/C(=C\c2ccc3c(c2)CCN3CCCCl)C1=O,"inconclusive: 5.32 µM [inhibitor, partial curve]",–
Cc1ccc(OCCOc2cccc(C=C3C(=O)NC(=O)NC3=O)c2)c(C)c1,active: 5.32 µM,–
O=c1oc2ccccc2n1CSC1=NCCS1,"inconclusive: 23.8 µM [inhibitor, partial curve]",–
Cn1ncnc2c(=O)n(C)c(=O)nc1-2,"inconclusive: 21.2 µM [inhibitor, partial curve]",–
Cc1nn(C)c(C)c1P(=S)(c1c(C)nn(C)c1C)N(C)C,"inconclusive: 29.9 µM [inhibitor, single point]",–
CC(N)Cc1c[nH]c2ccc(O)cc12 (stereo not given),–,inactive: 0.0889%
CCN(CC)c1ccc(/C=C2/C(=O)NC(=O)N(CC3CCCO3)C2=O)cc1 (stereo not given),"inconclusive: 2.38 µM [inhibitor, partial curve, poor fit]",–
C=C1C(=O)O[C@H]2[C@H]1[C@H](OC(=O)CC(=O)O[C@@H]1C[C@@H](C)[C@@H]3C=CC(=O)[C@@]3(C)[C@H]3OC(=O)C(=C)[C@H]13)C[C@@H](C)[C@H]1C=CC(=O)[C@]12C,"inconclusive: 26.7 µM [inhibitor, partial curve]",–
CN(C)CC1CSCCC1(O)c1ccccc1 (stereo not given),–,inactive: -9.99%

# Sorted by number of heavy atoms (rising): some entries from above
Structure (SMILES),Potency,"max response, negative = inhibition"
Cn1ncnc2c(=O)n(C)c(=O)nc1-2,"inconclusive: 21.2 µM [inhibitor, partial curve]",–
CCOc1cc(/C=C2/C(=O)NC(=O)N(c3ccc(CC)cc3)C2=O)ccc1OC(=O)c1cccs1,active: 5.97 µM,–
C=C1C(=O)O[C@H]2[C@H]1[C@H](OC(=O)CC(=O)O[C@@H]1C[C@@H](C)[C@@H]3C=CC(=O)[C@@]3(C)[C@H]3OC(=O)C(=C)[C@H]13)C[C@@H](C)[C@H]1C=CC(=O)[C@]12C,"inconclusive: 26.7 µM [inhibitor, partial curve]",–

# (listing goes on)

Structure (SMILES),Potency,"max response, negative = inhibition"
C/C(=C\c1ccc(N(C)C)cc1)[N+](=O)[O-],"inconclusive: 2.99 µM [inhibitor, partial curve]",–
Cc1cc(C(=O)OCC(=O)Nc2ccccc2F)c(C)n1C1CC1,–,inactive: -2.6%
O=C(O)CC1OCC=C2CN3CCC45C6=CC(=O)C(=O)C([N+](=O)[O-])=C6NC4C1C2CC35 (stereo not given),"inconclusive: 23.8 µM [inhibitor, partial curve]",–
COc1ccc(-n2c(-c3ccccc3[N+](=O)[O-])nc3ccccc3c2=O)cc1,active: 21.2 µM,–
COc1ccc(N2C(=O)/C(=C/c3ccc(C)o3)C(=O)NC2=S)cc1,active: 2.99 µM,–
Cc1cc(/C=C2\C(=O)NC(=O)N(c3ccc(F)cc3)C2=O)c(C)n1-c1ccc(C(=O)O)cc1,"inconclusive: 21.2 µM [inhibitor, partial curve]",–
CC(C)C1(C)N=C(c2nc3ccccc3cc2C(=O)O)NC1=O (stereo not given),–,inactive: -1.77%
COc1ccc(C(SCC(NC(=O)OCc2ccccc2)C(=O)O)c2ccc(OC)cc2)cc1 (stereo not given),"inconclusive: 15 µM [inhibitor, partial curve, poor fit]",–
COC(=O)C1=C(c2ccccc2OCc2ccccc2)C[C@@H]2CC[C@H]1N2C(=O)NCc1ccc([N+](=O)[O-])cc1,–,inconclusive: -27% [inhibitor]
COP(=S)(OC)SCN1C(=O)c2ccccc2C1=O,active: 21.2 µM,–
O=C1NC(=O)C(=Cc2coc3ccccc3c2=O)C(=O)N1,active: 10.6 µM,–
COc1ccc(-c2ccc3c(c2)CN(C(=O)CCc2ccccc2)Cc2cnnn2-3)cc1,–,inactive: -2.68%
O=C(c1cccc(Cl)c1)C1CCCN(Cc2cccc3cnccc23)C1 (stereo not given),"inconclusive: 26.7 µM [inhibitor, partial curve]",–
O=C(Cn1ncn2c(cc3cc(F)ccc32)c1=O)N1CCC2(CC1)OCCO2,"inconclusive: 26.7 µM [inhibitor, partial curve]",–
CCCC(=O)NC(Oc1ccccc1Cl)C(Cl)(Cl)Cl (stereo not given),"inconclusive: 9.47 µM [inhibitor, partial curve]",–
COC(=O)c1ccccc1N=Cc1c(O)[nH]c(=S)[nH]c1=O,–,inconclusive: -30.7% [inhibitor]
CCOC(=O)c1sc(/N=C/c2c(O)n(-c3cccc(C)c3)c(=O)[nH]c2=O)c(C#N)c1C,active: 18.9 µM,–
CCCOP(=O)(OCCC)C(NC(=O)c1cc(OC)c(OC)c(OC)c1)c1ccccc1 (stereo not given),–,inactive: -5.08%
Cc1ccc(OCC(=O)N2CCN(Cc3ccc4c(c3)OCO4)CC2)cc1,–,inconclusive: -37.2% [inhibitor]
Cc1nn(Cc2ccccc2)c2c1C(c1ccco1)C(C#N)=C(N)O2 (stereo not given),"inconclusive: 18.9 µM [inhibitor, single point]",–
CN1C2CCC1CC(OC(=O)c1ccc(Cl)cc1)C2 (stereo not given),active: 26.7 µM,–
CCc1ccc(N2C(=O)NC(=O)/C(=C\c3cc(C)n(-c4cc(C(=O)O)cc(C(=O)O)c4)c3C)C2=O)cc1,"inconclusive: 18.9 µM [inhibitor, partial curve]",–
